{
  "source": "patent US8039014B2",
  "about": "“3′-alkoxyspirocyclopentyl-substituted tetramic and tetronic acids” (Bayer Cropscience AG, priority 2005, dated 2011)",
  "type_in_all_cases": "in vivo",
  "key": {"Echinohcloa crus-gali": {"tested_on": "Echinohcloa crus-gali", "assay": "Herbicidal pre-emergence action", "conditions": "pre-emergence method at 320 g of a.i./ha; visual assessment after 3 weeks"}, "[1]": {"tested_on": "green peach aphid (Myzus persicae)", "assay": "Myzus test (MYZUPE spray treatment)", "conditions": "application rate of 500 g/ha; sprayed disks of Chinese cabbage"}, "[2]": {"tested_on": "larvae of the mustard beetle (Phaedon cochleariae)", "assay": "Phaedon test (PHAECO spray treatment)", "conditions": "application rate of 500 g/ha; sprayed disks of Chinese cabbage"}, "[3]": {"tested_on": "caterpillars of the armyworm (Spodoptera frugiperda)", "assay": "Spodoptera frugiperda test (SPODFR spray treatment)", "conditions": "application rate of 500 g/ha; sprayed disks of maize leaves"}, "[4]": {"tested_on": "greenhouse rat spider mite (Tetranychus urticae)", "assay": "Tetranychus test; OP resistant (TETRUR spray treatment)", "conditions": "application rate of 100 g/ha; sprayed disks of bean leaves"}, "Lolium multiflorum [5]": {"tested_on": "Lolium multiflorum", "assay": "Herbicidal pre-emergence action", "conditions": "pre-emergence method at 320 g of a.i./ha; visual assessment after 3 weeks"}, "Avena fatua": {"tested_on": "Avena fatua", "assay": "Herbicidal post-emergence action (Example 5)", "conditions": "post-emergence method at 320 g of a.i./ha; rated visually after about 3 weeks"}, "Echinochloa crus-galli": {"tested_on": "Echinochloa crus-galli", "assay": "Herbicidal post-emergence action (Example 5)", "conditions": "post-emergence method at 320 g of a.i./ha; rated visually after about 3 weeks"}, "Lolium multiflorum [6]": {"tested_on": "Lolium multiflorum", "assay": "Herbicidal post-emergence action (Example 5)", "conditions": "post-emergence method at 320 g of a.i./ha; rated visually after about 3 weeks"}, "Setaria viridis": {"tested_on": "Setaria viridis", "assay": "Herbicidal post-emergence action (Example 5)", "conditions": "post-emergence method at 320 g of a.i./ha; rated visually after about 3 weeks"}},
  "note": "Some results were stated once for a whole list of compounds, not compound by compound.",
  "data": [
    {"compound": "COC1CCC2(C1)NC(=O)C(c1c(C)cc(Br)cc1C)=C2O", "note": "(stereo not shown) [Example I-1-a-10]", "values": [
      {"measurement": "efficacy (herbicidal activity in percent) against Echinohcloa crus-gali", "setting": "Echinohcloa crus-gali", "value": "≥ 80", "unit": "%"},
      {"measurement": "efficacy (effect in %, aphids killed)", "setting": "[1]", "value": "≥ 80", "unit": "%"},
      {"measurement": "efficacy (effect in %, beetle larvae killed)", "setting": "[2]", "value": "≥ 80", "unit": "%"},
      {"measurement": "efficacy (effect in %, caterpillars killed)", "setting": "[3]", "value": "≥ 80", "unit": "%"},
      {"measurement": "efficacy (effect in %, spider mites killed)", "setting": "[4]", "value": "≥ 80", "unit": "%"},
      {"measurement": "efficacy (herbicidal activity in percent) against Lolium multiflorum", "setting": "Lolium multiflorum [5]", "value": "≥ 80", "unit": "%"}
    ]},
    {"compound": "CCc1cc(C)cc(Br)c1C1=C(O)C2(CCC(OCC3CC3)C2)NC1=O", "note": "(stereo not shown) [Example I-1-a-21]", "values": [
      {"measurement": "efficacy (effect in %, aphids killed)", "setting": "[1]", "value": "≥ 80", "unit": "%"},
      {"measurement": "efficacy (effect in %, spider mites killed)", "setting": "[4]", "value": "≥ 80", "unit": "%"}
    ]},
    {"compound": "Cc1cc(C)c(C2=C(O)C3(CCC(OCC4CC4)C3)NC2=O)c(C)c1", "note": "(stereo not shown) [Example I-1-a-24]", "values": [
      {"measurement": "efficacy (effect in %, aphids killed)", "setting": "[1]", "value": "≥ 80", "unit": "%"},
      {"measurement": "efficacy (effect in %, spider mites killed)", "setting": "[4]", "value": "≥ 80", "unit": "%"}
    ]},
    {"compound": "Cc1ccc(-c2ccc(Cl)cc2)cc1C1=C(O)C2(CCC(OCC3CC3)C2)NC1=O", "note": "(stereo not shown) [Example I-1-a-25]", "values": [
      {"measurement": "efficacy (effect in %, aphids killed)", "setting": "[1]", "value": "≥ 80", "unit": "%"},
      {"measurement": "efficacy (effect in %, caterpillars killed)", "setting": "[3]", "value": "≥ 80", "unit": "%"},
      {"measurement": "efficacy (effect in %, spider mites killed)", "setting": "[4]", "value": "≥ 80", "unit": "%"}
    ]},
    {"compound": "CCCCOC1CCC2(C1)NC(=O)C(c1c(Br)cc(C)cc1CC)=C2OC(=O)C(C)C", "note": "(stereo not shown) [Example I-1-b-4]", "values": [
      {"measurement": "efficacy (herbicidal activity in percent) against Echinohcloa crus-gali", "setting": "Echinohcloa crus-gali", "value": "≥ 80", "unit": "%"},
      {"measurement": "efficacy (effect in %, spider mites killed)", "setting": "[4]", "value": "≥ 80", "unit": "%"},
      {"measurement": "efficacy (herbicidal activity in percent) against Lolium multiflorum", "setting": "Lolium multiflorum [5]", "value": "≥ 80", "unit": "%"}
    ]},
    {"compound": "CCCCOC1CCC2(C1)NC(=O)C(c1c(C)cc(C)cc1C)=C2OC(=O)C(C)C", "note": "(stereo not shown) [Example I-1-b-5]", "values": [
      {"measurement": "efficacy (effect in %, aphids killed)", "setting": "[1]", "value": "≥ 80", "unit": "%"},
      {"measurement": "efficacy (effect in %, beetle larvae killed)", "setting": "[2]", "value": "≥ 80", "unit": "%"},
      {"measurement": "efficacy (effect in %, caterpillars killed)", "setting": "[3]", "value": "≥ 80", "unit": "%"},
      {"measurement": "efficacy (effect in %, spider mites killed)", "setting": "[4]", "value": "≥ 80", "unit": "%"}
    ]},
    {"compound": "CCOC(=O)OC1=C(c2c(C)cc(C)cc2C)C(=O)NC12CCC(OC)C2", "note": "(stereo not shown) [Example I-1-c-3]", "values": [
      {"measurement": "efficacy (herbicidal activity in percent) against Echinohcloa crus-gali", "setting": "Echinohcloa crus-gali", "value": "≥ 80", "unit": "%"},
      {"measurement": "efficacy (effect in %, aphids killed)", "setting": "[1]", "value": "≥ 80", "unit": "%"},
      {"measurement": "efficacy (effect in %, spider mites killed)", "setting": "[4]", "value": "≥ 80", "unit": "%"},
      {"measurement": "efficacy (herbicidal activity in percent) against Lolium multiflorum", "setting": "Lolium multiflorum [5]", "value": "≥ 80", "unit": "%"}
    ]},
    {"compound": "CCOC(=O)OC1=C(c2c(C)cc(C)cc2C)C(=O)NC12CCC(OC)C2", "note": "(stereo not shown) [Example I-1-c-4]", "values": [
      {"measurement": "efficacy (effect in %, beetle larvae killed)", "setting": "[2]", "value": "≥ 80", "unit": "%"}
    ]},
    {"compound": "CCOC(=O)OC1=C(c2c(C)cc(C)cc2Br)C(=O)NC12CCC(OC)C2", "note": "(stereo not shown) [Example I-1-c-5]", "values": [
      {"measurement": "efficacy (effect in %, aphids killed)", "setting": "[1]", "value": "≥ 80", "unit": "%"},
      {"measurement": "efficacy (effect in %, beetle larvae killed)", "setting": "[2]", "value": "≥ 80", "unit": "%"},
      {"measurement": "efficacy (effect in %, spider mites killed)", "setting": "[4]", "value": "≥ 80", "unit": "%"}
    ]},
    {"compound": "CCOC(=O)OC1=C(c2c(C)cc(C)cc2C)C(=O)NC12CCC(OCC)C2", "note": "(stereo not shown) [Example I-1-c-13]", "values": [
      {"measurement": "efficacy (effect in %, beetle larvae killed)", "setting": "[2]", "value": "≥ 80", "unit": "%"},
      {"measurement": "efficacy (effect in %, spider mites killed)", "setting": "[4]", "value": "≥ 80", "unit": "%"}
    ]},
    {"compound": "CCOC(=O)OC1=C(c2c(C)cc(C)cc2C)C(=O)NC12CCC(OCC)C2", "note": "(stereo not shown) [Example I-1-c-14]", "values": [
      {"measurement": "efficacy (effect in %, aphids killed)", "setting": "[1]", "value": "≥ 80", "unit": "%"}
    ]},
    {"compound": "CCOC(=O)OC1=C(c2cc(-c3ccc(Cl)cc3)ccc2C)C(=O)NC12CCC(OC)C2", "note": "(stereo not shown) [Example I-1-c-15]", "values": [
      {"measurement": "efficacy (herbicidal activity in percent) against Echinohcloa crus-gali", "setting": "Echinohcloa crus-gali", "value": "≥ 80", "unit": "%"},
      {"measurement": "efficacy (effect in %, aphids killed)", "setting": "[1]", "value": "≥ 80", "unit": "%"},
      {"measurement": "efficacy (effect in %, beetle larvae killed)", "setting": "[2]", "value": "≥ 80", "unit": "%"},
      {"measurement": "efficacy (effect in %, spider mites killed)", "setting": "[4]", "value": "≥ 80", "unit": "%"},
      {"measurement": "efficacy (herbicidal activity in percent) against Lolium multiflorum", "setting": "Lolium multiflorum [5]", "value": "≥ 80", "unit": "%"}
    ]},
    {"compound": "CCOC(=O)OC1=C(c2cc(-c3ccc(Cl)cc3)ccc2C)C(=O)NC12CCC(OC)C2", "note": "(stereo not shown) [Example I-1-c-16]", "values": [
      {"measurement": "efficacy (effect in %, caterpillars killed)", "setting": "[3]", "value": "≥ 80", "unit": "%"}
    ]},
    {"compound": "CCCOC1CCC2(C1)NC(=O)C(c1c(Br)cc(C)cc1CC)=C2OC(=O)OCC", "note": "(stereo not shown) [Example I-1-c-20]", "values": [
      {"measurement": "efficacy (effect in %, aphids killed)", "setting": "[1]", "value": "≥ 80", "unit": "%"},
      {"measurement": "efficacy (effect in %, beetle larvae killed)", "setting": "[2]", "value": "≥ 80", "unit": "%"},
      {"measurement": "efficacy (effect in %, caterpillars killed)", "setting": "[3]", "value": "≥ 80", "unit": "%"},
      {"measurement": "efficacy (herbicidal activity in percent) against Avena fatua", "setting": "Avena fatua", "value": "≥ 80", "unit": "%"},
      {"measurement": "efficacy (herbicidal activity in percent) against Echinochloa crus-galli", "setting": "Echinochloa crus-galli", "value": "≥ 80", "unit": "%"},
      {"measurement": "efficacy (herbicidal activity in percent) against Lolium multiflorum", "setting": "Lolium multiflorum [6]", "value": "≥ 80", "unit": "%"},
      {"measurement": "efficacy (effect in %, spider mites killed)", "setting": "[4]", "value": "≥ 80", "unit": "%"},
      {"measurement": "efficacy (herbicidal activity in percent) against Setaria viridis", "setting": "Setaria viridis", "value": "≥ 80", "unit": "%"}
    ]},
    {"compound": "CCOC(=O)OC1=C(c2c(Br)cc(C)cc2CC)C(=O)NC12CCC(OCC1CC1)C2", "note": "(stereo not shown) [Example I-1-c-21]", "values": [
      {"measurement": "efficacy (effect in %, spider mites killed)", "setting": "[4]", "value": "≥ 80", "unit": "%"}
    ]},
    {"compound": "CCOC(=O)OC1=C(c2c(C)cc(C)cc2C)C(=O)NC12CCC(OCC1CC1)C2", "note": "(stereo not shown) [Example I-1-c-22]", "values": [
      {"measurement": "efficacy (effect in %, aphids killed)", "setting": "[1]", "value": "≥ 80", "unit": "%"},
      {"measurement": "efficacy (effect in %, spider mites killed)", "setting": "[4]", "value": "≥ 80", "unit": "%"}
    ]},
    {"compound": "CCOC(=O)OC1=C(c2cc(-c3ccc(Cl)cc3)ccc2C)C(=O)NC12CCC(OCC1CC1)C2", "note": "(stereo not shown) [Example I-1-c-23]", "values": [
      {"measurement": "efficacy (effect in %, aphids killed)", "setting": "[1]", "value": "≥ 80", "unit": "%"},
      {"measurement": "efficacy (effect in %, spider mites killed)", "setting": "[4]", "value": "≥ 80", "unit": "%"}
    ]},
    {"compound": "CCOC(=O)OC1=C(c2c(Br)cc(C)cc2CC)C(=O)NC12CCC(OCC1CC1)C2", "note": "(stereo not shown) [Example I-1-c-24]", "values": [
      {"measurement": "efficacy (effect in %, aphids killed)", "setting": "[1]", "value": "≥ 80", "unit": "%"}
    ]},
    {"compound": "CCOC(=O)OC1=C(c2c(Br)cc(C)cc2CC)C(=O)NC12CCC(OCCOC)C2", "note": "(stereo not shown) [Example I-1-c-27]", "values": [
      {"measurement": "efficacy (effect in %, aphids killed)", "setting": "[1]", "value": "≥ 80", "unit": "%"},
      {"measurement": "efficacy (effect in %, spider mites killed)", "setting": "[4]", "value": "≥ 80", "unit": "%"}
    ]},
    {"compound": "CCOC(=O)OC1=C(c2c(C)cc(C)cc2C)C(=O)NC12CCC(OCCOC)C2", "note": "(stereo not shown) [Example I-1-c-29]", "values": [
      {"measurement": "efficacy (effect in %, aphids killed)", "setting": "[1]", "value": "≥ 80", "unit": "%"},
      {"measurement": "efficacy (effect in %, spider mites killed)", "setting": "[4]", "value": "≥ 80", "unit": "%"}
    ]}
  ]
}
